This assay addresses T1, SopD-FLAGBirA* (S. Typhimurium SL1344) (UniProt P40722).
T1 sequence: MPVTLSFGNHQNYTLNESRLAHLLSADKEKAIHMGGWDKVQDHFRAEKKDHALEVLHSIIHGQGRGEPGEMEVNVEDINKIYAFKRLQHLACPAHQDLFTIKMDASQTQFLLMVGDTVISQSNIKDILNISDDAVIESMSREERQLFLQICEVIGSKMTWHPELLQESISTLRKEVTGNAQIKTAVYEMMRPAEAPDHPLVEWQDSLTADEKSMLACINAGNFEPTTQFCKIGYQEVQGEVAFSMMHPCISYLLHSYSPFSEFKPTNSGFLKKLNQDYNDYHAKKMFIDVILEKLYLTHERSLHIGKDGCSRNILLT
In words: affinity purification with mass spectrometry; anti-FLAG M2 agarose beads on lysate of Flp-In T-REx 293 cells stably expressing SopD-FLAGBirA*; lysis buffer 50 mM HEPES-NaOH pH 8.0, 100 mM KCl, 2 mM EDTA, 0.1% NP40, 10% glycerol; 2 h at 4 °C; controls: cells expressing FlagBirA* alone; SAINT, high confidence BFDR≤0.01.

Chains of the proteins cited; added tags and fusions are not shown.
UniProt P61006: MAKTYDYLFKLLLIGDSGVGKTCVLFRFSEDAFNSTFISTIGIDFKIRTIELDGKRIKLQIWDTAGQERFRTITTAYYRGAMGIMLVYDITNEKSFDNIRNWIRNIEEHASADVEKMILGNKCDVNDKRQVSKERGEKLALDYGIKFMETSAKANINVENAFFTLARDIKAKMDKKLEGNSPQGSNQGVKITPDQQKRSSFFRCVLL
UniProt P61026: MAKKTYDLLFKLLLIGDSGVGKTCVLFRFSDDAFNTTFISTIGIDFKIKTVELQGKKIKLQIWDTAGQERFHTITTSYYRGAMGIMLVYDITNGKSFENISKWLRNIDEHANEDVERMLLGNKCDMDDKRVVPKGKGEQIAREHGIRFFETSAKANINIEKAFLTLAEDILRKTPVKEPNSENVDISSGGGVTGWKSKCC

Consider 2 substances from article PMC8339009.

These are yes or no findings as the source states them, for the method shown. In cells and extracts the contact can be indirect. A yes stands for co-enrichment or nearness to the bait. Other partners may have been found. Tags and fused reporters may be left off the sequences shown.

For “Rab8A (endogenous) (from UniProt P61006 1-207)”, the binding entry was “binds”.

“Rab10 (endogenous) (from UniProt P61026 1-200)”: the binding entry was “binds”.
